Laboratory results from the supplement of paper PMC11732987, “Enantioselective OTUD7B fragment discovery through chemoproteomics screening and high-throughput optimisation” (Communications Chemistry, 2025).
This is one part of the list. The data scatter; read single values as rough.

Sequences of proteins named here, by UniProt entry; tags and fusion partners are left off. A change or cut given only in a name is not applied to a line headed by its entry. Residues count along the entry.
UniProt Q96JM3: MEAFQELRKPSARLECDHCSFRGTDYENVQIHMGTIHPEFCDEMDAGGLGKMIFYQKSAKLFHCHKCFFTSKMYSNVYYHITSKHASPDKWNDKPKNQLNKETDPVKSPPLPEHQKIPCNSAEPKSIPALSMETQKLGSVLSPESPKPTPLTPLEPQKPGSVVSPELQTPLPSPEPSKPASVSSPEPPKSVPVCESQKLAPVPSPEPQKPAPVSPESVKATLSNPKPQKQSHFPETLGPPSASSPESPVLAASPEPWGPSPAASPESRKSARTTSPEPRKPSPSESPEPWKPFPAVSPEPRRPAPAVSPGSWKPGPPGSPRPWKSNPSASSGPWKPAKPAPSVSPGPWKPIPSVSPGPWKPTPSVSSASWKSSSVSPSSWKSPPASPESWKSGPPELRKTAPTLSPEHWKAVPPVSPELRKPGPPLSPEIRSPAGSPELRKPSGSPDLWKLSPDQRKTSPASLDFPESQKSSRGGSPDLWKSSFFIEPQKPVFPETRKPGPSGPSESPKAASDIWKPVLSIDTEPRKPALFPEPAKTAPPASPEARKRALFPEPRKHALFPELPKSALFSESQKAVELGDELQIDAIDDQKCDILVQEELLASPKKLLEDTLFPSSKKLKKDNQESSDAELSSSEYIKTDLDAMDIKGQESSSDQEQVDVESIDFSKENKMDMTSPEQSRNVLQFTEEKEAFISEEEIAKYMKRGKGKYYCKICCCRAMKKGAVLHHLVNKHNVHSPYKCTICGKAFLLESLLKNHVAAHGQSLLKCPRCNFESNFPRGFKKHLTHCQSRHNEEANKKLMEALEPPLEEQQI
UniProt Q00537: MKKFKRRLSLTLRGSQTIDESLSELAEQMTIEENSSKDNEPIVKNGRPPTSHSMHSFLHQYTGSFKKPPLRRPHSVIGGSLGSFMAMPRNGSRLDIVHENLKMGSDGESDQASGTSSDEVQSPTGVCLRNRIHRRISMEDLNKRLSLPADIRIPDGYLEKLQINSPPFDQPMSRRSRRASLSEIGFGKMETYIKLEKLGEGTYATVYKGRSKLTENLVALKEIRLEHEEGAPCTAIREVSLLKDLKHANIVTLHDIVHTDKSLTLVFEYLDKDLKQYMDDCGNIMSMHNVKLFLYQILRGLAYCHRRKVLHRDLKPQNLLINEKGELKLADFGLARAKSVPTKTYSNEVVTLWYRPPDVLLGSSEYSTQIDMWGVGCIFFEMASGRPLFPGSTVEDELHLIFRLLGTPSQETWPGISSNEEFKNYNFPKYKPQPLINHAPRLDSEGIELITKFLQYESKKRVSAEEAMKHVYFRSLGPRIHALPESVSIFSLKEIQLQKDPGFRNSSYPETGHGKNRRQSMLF
UniProt Q99832: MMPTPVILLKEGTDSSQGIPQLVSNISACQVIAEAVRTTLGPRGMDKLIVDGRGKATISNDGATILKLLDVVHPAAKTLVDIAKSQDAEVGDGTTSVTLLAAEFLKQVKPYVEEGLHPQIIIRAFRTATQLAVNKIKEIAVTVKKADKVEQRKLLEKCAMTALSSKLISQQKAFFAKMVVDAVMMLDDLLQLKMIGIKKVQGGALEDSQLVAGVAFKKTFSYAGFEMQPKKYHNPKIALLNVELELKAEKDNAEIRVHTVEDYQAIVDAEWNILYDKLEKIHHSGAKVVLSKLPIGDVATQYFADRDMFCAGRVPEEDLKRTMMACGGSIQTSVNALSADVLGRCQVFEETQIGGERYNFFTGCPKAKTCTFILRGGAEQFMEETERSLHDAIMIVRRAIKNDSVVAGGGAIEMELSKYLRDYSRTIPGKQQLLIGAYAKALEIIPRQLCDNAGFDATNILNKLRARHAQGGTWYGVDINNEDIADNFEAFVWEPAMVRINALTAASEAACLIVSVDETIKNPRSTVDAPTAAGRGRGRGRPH
UniProt Q5SW79: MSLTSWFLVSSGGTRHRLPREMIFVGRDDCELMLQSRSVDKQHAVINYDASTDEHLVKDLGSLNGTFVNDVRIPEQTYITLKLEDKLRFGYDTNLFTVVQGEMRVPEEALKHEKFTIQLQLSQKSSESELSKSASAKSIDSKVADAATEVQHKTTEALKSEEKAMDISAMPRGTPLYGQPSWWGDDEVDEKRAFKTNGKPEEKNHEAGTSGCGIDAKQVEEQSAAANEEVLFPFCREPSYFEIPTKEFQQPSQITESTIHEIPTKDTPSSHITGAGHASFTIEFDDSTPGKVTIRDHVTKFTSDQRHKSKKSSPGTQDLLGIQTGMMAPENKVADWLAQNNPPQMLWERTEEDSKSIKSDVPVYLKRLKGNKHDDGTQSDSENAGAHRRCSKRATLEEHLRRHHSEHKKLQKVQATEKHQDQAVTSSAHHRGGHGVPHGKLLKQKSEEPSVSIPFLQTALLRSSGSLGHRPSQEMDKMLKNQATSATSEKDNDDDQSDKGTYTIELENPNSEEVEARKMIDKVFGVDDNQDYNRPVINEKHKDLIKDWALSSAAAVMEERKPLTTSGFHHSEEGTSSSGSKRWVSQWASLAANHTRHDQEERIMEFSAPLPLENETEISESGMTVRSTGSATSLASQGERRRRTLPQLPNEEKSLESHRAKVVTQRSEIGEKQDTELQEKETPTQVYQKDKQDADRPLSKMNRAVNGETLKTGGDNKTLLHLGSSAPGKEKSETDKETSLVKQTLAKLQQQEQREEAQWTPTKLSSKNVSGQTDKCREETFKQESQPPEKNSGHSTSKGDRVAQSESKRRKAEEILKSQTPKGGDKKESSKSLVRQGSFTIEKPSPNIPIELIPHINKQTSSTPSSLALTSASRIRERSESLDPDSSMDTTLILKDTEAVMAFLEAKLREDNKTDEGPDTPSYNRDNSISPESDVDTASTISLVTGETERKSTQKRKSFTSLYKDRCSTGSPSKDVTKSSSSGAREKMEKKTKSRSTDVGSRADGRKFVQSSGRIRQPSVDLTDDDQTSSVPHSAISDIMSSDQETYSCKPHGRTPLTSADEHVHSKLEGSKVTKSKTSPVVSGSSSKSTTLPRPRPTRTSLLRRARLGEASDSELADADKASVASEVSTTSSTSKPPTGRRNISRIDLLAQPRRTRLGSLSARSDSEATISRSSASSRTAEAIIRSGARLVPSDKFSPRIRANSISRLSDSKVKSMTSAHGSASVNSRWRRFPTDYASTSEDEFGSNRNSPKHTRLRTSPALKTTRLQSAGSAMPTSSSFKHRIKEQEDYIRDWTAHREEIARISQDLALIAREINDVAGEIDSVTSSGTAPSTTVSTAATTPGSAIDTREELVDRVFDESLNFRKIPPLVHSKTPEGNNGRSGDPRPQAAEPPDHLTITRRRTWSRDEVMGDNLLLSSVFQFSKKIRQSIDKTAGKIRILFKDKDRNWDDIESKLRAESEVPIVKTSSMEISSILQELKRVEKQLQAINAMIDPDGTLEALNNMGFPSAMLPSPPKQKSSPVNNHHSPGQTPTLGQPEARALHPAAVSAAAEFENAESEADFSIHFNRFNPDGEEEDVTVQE
UniProt Q86X02: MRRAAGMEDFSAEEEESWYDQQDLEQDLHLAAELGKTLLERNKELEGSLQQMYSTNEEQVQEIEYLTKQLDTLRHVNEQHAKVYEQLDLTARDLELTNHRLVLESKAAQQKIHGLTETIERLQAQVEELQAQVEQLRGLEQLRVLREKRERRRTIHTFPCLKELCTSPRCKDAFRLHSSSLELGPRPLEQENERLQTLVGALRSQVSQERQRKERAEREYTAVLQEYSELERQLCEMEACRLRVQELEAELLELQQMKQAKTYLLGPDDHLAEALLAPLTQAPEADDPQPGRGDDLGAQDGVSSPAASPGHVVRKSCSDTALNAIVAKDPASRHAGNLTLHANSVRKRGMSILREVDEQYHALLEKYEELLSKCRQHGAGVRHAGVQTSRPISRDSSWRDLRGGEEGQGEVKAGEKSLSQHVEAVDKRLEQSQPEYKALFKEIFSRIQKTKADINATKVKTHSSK
UniProt Q9UJX2, whole entry, looked up: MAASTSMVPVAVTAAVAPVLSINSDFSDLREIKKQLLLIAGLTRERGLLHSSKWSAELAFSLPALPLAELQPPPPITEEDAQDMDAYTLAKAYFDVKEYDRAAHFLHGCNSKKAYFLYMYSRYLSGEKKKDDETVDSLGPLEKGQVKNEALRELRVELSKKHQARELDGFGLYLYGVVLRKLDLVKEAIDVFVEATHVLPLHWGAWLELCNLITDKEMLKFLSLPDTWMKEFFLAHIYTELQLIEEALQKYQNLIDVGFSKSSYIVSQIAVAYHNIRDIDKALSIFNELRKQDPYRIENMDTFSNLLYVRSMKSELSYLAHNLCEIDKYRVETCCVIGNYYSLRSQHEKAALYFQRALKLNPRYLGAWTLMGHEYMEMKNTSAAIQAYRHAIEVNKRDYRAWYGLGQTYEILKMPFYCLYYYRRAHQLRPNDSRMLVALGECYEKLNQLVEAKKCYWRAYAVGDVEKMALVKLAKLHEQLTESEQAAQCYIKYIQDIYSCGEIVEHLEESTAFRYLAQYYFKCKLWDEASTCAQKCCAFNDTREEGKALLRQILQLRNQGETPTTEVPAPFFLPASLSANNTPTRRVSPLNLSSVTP
UniProt P48643, 418-439: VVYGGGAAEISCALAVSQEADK
UniProt Q53EZ4: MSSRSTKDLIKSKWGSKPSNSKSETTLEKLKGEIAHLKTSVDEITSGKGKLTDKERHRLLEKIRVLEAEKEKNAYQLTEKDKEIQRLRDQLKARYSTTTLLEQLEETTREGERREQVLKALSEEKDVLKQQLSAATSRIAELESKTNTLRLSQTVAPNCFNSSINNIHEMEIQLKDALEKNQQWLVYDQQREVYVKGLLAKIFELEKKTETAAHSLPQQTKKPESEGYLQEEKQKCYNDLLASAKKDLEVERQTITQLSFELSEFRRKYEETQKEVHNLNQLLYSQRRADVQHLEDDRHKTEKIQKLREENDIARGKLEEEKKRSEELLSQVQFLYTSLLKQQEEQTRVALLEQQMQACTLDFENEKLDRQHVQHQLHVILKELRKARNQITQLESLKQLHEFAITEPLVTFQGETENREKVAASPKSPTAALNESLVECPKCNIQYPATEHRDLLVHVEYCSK
UniProt Q5TB80: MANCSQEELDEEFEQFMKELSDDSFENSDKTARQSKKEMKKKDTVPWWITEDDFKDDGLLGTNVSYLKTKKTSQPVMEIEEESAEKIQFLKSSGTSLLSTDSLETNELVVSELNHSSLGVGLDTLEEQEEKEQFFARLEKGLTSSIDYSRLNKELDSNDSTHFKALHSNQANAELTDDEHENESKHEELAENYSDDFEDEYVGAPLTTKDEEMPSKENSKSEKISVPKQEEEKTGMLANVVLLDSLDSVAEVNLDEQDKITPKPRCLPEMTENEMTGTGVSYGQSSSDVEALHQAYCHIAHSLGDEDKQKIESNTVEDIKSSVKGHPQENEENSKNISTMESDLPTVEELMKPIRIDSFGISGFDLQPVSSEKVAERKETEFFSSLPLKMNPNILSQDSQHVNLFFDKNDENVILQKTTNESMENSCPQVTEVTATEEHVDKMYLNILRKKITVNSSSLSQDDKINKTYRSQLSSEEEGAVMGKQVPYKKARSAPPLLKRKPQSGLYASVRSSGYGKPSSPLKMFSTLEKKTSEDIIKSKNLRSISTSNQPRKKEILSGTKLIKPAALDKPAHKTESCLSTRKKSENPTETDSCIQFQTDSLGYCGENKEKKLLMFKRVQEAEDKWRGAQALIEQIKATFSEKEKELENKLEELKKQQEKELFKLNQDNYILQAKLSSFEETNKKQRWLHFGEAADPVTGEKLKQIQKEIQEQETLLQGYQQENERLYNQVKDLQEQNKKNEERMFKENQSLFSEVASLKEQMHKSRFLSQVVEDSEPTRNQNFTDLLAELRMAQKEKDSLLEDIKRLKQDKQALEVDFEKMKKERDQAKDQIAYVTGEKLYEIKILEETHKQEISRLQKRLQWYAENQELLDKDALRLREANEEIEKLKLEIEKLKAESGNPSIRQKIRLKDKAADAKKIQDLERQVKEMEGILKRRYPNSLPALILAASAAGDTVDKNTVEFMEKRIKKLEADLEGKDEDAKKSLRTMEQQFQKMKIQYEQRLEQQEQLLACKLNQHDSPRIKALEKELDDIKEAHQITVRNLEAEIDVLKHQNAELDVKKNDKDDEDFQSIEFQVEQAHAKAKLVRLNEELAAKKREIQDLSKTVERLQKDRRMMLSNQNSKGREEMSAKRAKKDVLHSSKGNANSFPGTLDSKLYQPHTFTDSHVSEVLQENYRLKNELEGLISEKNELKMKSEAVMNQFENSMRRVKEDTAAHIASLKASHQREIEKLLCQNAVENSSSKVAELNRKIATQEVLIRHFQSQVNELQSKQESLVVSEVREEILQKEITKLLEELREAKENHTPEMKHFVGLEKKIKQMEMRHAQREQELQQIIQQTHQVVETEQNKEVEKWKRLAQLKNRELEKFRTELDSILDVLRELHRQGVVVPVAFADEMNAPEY

compound: ClCC(=O)N[C@@H]1CCCc2ccccc12; experiment: log2 mean competition ratio of IA-DTB cysteine labelling (DMSO/compound) (log2 ratio); higher = stronger cysteine engagement by compound; details: 50 µM; treatment time: 4 h; cell line lysate: HEK293T
Experimental: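 IA-DTB competitive cysteine chemoproteomics in HEK293T RIPA lysate. Lysates were treated with compound 29 or 30 at 50 or 200 µM for 4 h, then IA-DTB (500 µM, 1 h), trypsin-digested, NeutrAvidin-enriched and analysed by diaPASEF. Competition ratio = intensity DMSO / intensity compound (n=4 treated, n=64 DMSO); binding: mean log2 CR ≥ 1 and p ≤ 0.05 plus QC filters. Target is the cysteine site.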

| Target | log2 mean competition ratio |
| --- | --- |
| CCDC85C C373 (UniProt A6NKD9) | -0.352 |
| CDC25C C145 (UniProt P30307) | 0.0469 |
| CHAMP1 C770 (UniProt Q96JM3) | 0.0916 |
| CEP295 C874 (UniProt Q9C0D2) | 0.0692 |
| CCDC186 C54 (UniProt Q7Z3E2) | 0.365 |
| CDK17 C233 (UniProt Q00537) | -0.139 |
| CCT7 C158 (UniProt Q99832) | 0.29 |
| CCAR2 C754 | 0.149 |
| CEP170 C212 (UniProt Q5SW79) | -0.0972 |
| CDR2L C317 (UniProt Q86X02) | 0.0524 |
| CENPF C2680 (UniProt P49454) | 0.0452 |
| CDAN1 C1213 | -0.219 |
| CDC23 C442 (UniProt Q9UJX2) | 0.237 |
| CCT5 C429 (UniProt P48643) | -0.143 |
| CEP55 C443 (UniProt Q53EZ4) | 0.273 |
| CCT7 C364 (UniProt Q99832) | 0.143 |
| CEP104 C259 (UniProt O60308) | -0.106 |
| CEP162 C1235 (UniProt Q5TB80) | 0.138 |
| CCDC9 C233 | -0.207 |
| CDK6 C280 (UniProt Q00534) | -0.0264 |

same assay, conditions: 200 µM; treatment time: 4 h; cell line lysate: HEK293T

| Target | log2 mean competition ratio |
| --- | --- |
| CCDC85C C373 (UniProt A6NKD9) | 0.205 |
| CDC25C C145 (UniProt P30307) | -0.0183 |
| CHAMP1 C770 (UniProt Q96JM3) | -0.146 |
| CEP295 C874 (UniProt Q9C0D2) | 0.113 |
| CCDC186 C54 (UniProt Q7Z3E2) | 0.0303 |
| CDK17 C233 (UniProt Q00537) | 0.0299 |
| CCT7 C158 (UniProt Q99832) | -0.0445 |
| CCAR2 C754 | 0.498 |
| CEP170 C212 (UniProt Q5SW79) | 0.0951 |
| CDR2L C317 (UniProt Q86X02) | -0.0915 |
| CENPF C2680 (UniProt P49454) | -0.198 |
| CDAN1 C1213 | -0.0216 |
| CDC23 C442 (UniProt Q9UJX2) | -0.13 |
| CCT5 C429 (UniProt P48643) | -0.264 |
| CEP55 C443 (UniProt Q53EZ4) | -0.2 |
| CCT7 C364 (UniProt Q99832) | -0.297 |
| CEP104 C259 (UniProt O60308) | 0.0937 |
| CEP162 C1235 (UniProt Q5TB80) | -0.254 |
| CCDC9 C233 | -0.194 |
| CDK6 C280 (UniProt Q00534) | 0.0565 |
